Here are results for 27 compounds from PubChem BioAssay AID256 (DTP/NCI, 2004).

For the assay, the system named is CD2F1 mice, L1210 leukemia ip, survival T/C. Kind of assay: NCI In Vivo Anticancer Drug Screen. Data for tumor model L1210 Leukemia (intraperitoneal) in CD2F1 (CDF1) mice. The note with it: higher T/C = longer survival. In outline:
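Ratio T/C, where T is the treated-group value and C the vehicle-dosed control value, from mice implanted with a transplantable tumor.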

The mark [1] stands for this setting: T/C endpoint: mean survival time, dose: 200.0 mg/kg/injection, schedule: Q01DX009 (ip), vehicle: saline with Tween-80.
Where [2] appears, read: T/C endpoint: mean survival time, dose: 400.0 mg/kg/injection, schedule: Q04DX002 (ip), vehicle: saline with Tween-80.
[3] abbreviates: T/C endpoint: mean survival time, dose: 400.0 mg/kg/injection, schedule: Q04DX003 (ip), vehicle: saline with Tween-80.
[4] abbreviates: T/C endpoint: mean survival time, dose: 200.0 mg/kg/injection, schedule: Q04DX003 (ip), vehicle: DMSO.
Setting [5] is: T/C endpoint: mean survival time, dose: 400.0 mg/kg/injection, schedule: Q04DX003 (ip), vehicle: DMSO.
Setting [6] is: T/C endpoint: mean survival time, dose: 300.0 mg/kg/injection, schedule: Q01DX001 (ip), vehicle: saline.
Setting [7] is: T/C endpoint: mean survival time, dose: 400.0 mg/kg/injection, schedule: Q04DX002 (ip), vehicle: saline.

Structures are written as SMILES. The list shows only some results of the screen, not a fair sample: it gathers tests that were run many times, whatever their T/C, doses with no T/C, and many T/C values between a quarter and a half above the control. Further doses and runs are listed elsewhere. T/C is the treated group as % of the vehicle group. Some doses have a count of surviving animals in place of a T/C: the source holds a T/C of zero for them, seemingly a mark for toxic or unscored doses. Some survivor counts are full or nearly so, which does not show that the dose was tolerated: the source hardly ever lists a survival T/C far under the control, and the zero likely stands for such cases as well. Counts of survivors are from the toxicity check (mostly the fifth day) where no day follows; animals may have died later. Schedule codes are those of the source, read here as Q, the interval in days (D) or hours (H), X, the number of doses. Some entries were tested several times; their values stand side by side, smallest first. For survival time, the PubChem record calls one and a half times the control and up active, and a quarter to a half above the control has no call in these data; cut-offs in other NCI protocols can differ.

Take `CC(C)(C)N1C2CCCC21` (configuration not stated): the survivor count is recorded as 0 of 6 (T/C endpoint: mean survival time, dose: 100.0 mg/kg/injection, schedule: Q01DX001 (ip), vehicle: saline); 0 of 6 (T/C endpoint: mean survival time, dose: 200.0 mg/kg/injection, schedule: Q01DX001 (ip), vehicle: saline); 0 of 6 (T/C endpoint: mean survival time, dose: 400.0 mg/kg/injection, schedule: Q01DX001 (ip), vehicle: saline).

For `O=C(NCCCl)Nc1cc(Cl)cc(Cl)c1`, the survivor count by setting is: under setting [1], 6 of 6; (T/C endpoint: mean survival time, dose: 400.0 mg/kg/injection, schedule: Q01DX009 (ip), vehicle: saline with Tween-80) 2 of 6. For the compound `Nc1nc2c(c(=O)[nH]1)N=C(CCc1ccccc1)CO2`, the survivor count (T/C endpoint: mean survival time, dose: 400.0 mg/kg/injection, schedule: Q01DX009 (ip), vehicle: other) is 3 of 6. Take `O=C(/C=C(\Br)c1ccccc1)c1ccccc1`: the survivor count was 3 of 3 (T/C endpoint: mean survival time, dose: 200.0 mg/kg/injection, schedule: Q04DX002 (ip), vehicle: saline with Tween-80) and 2 of 3 under setting [2].

Turning to `NCc1cnc(N)nc1N`, the survivor count under setting [3] is 1 of 6.

For `Oc1ccc2c3c1OC1C(O)C=CC4C(C2)NCCC341` (configuration not stated), the survivor count is given as 1 of 3 under setting [4] and 0 of 3 under setting [5].

As to `CO[C@@H]1C2=CC=CC=C[C@H]2n2c(=O)n(C)c(=O)n21`, the survivor count is 3 of 6 (T/C endpoint: median survival time, dose: 300.0 mg/kg/injection, schedule: Q01DX005 (ip), vehicle: other) and 0 of 6 (T/C endpoint: median survival time, dose: 600.0 mg/kg/injection, schedule: Q01DX005 (ip), vehicle: other).

As to `COc1cccc(C(O)c2ccncc2C)c1OC` (configuration not stated), for the setting “T/C endpoint: mean survival time, dose: 400.0 mg/kg/injection, schedule: Q01DX009 (ip), vehicle: Klucel (hydroxypropylcellulose) (HPC)”, the survivor count is listed as 1 of 6. On to `CSc1nc(SC)c2c3c(N)ncnc3n(C3OC(CO)C(O)C3O)c2n1` (configuration not stated), for which the T/C by setting is: (T/C endpoint: mean survival time, dose: 50.0 mg/kg/injection, schedule: Q01DX005 (ip), vehicle: other) 125 % of control; (T/C endpoint: mean survival time, dose: 100.0 mg/kg/injection, schedule: Q01DX005 (ip), vehicle: other) 125 % of control; (T/C endpoint: mean survival time, dose: 200.0 mg/kg/injection, schedule: Q01DX005 (ip), vehicle: other) 130 and 145 % of control; (T/C endpoint: mean survival time, dose: 300.0 mg/kg/injection, schedule: Q01DX005 (ip), vehicle: other) 136 % of control. For the compound `S=C1NC(c2ccccc2)Nc2ccccc21` (configuration not stated), the survivor count under setting [3] is 5 of 6.

Turning to `COc1cc2cc3c4ccc(OC)c(OC)c4cc[n+]3c(C)c2cc1OC` (tested in a mixture with another compound), the survivor count was 0 of 6 (T/C endpoint: mean survival time, dose: 100.0 mg/kg/injection, schedule: Q01DX009 (ip), vehicle: other) and 0 of 6 (T/C endpoint: mean survival time, dose: 200.0 mg/kg/injection, schedule: Q01DX009 (ip), vehicle: other). For the compound `COc1cccc2c1C(=N)c1c(O)c3c(c(O)c1C2=O)C[C@@](O)(C(C)=O)C[C@@H]3OC1CC(N)C(O)C(C)O1` (some centres not stated), the T/C by setting is: (T/C endpoint: mean survival time, dose: 1.0 mg/kg/injection, schedule: Q01DX009 (ip), vehicle: saline) 128 % of control; (T/C endpoint: mean survival time, dose: 8.0 mg/kg/injection, schedule: Q01DX009 (ip), vehicle: saline) 138 % of control. For the same compound, the survivor count (T/C endpoint: mean survival time, dose: 16.0 mg/kg/injection, schedule: Q01DX009 (ip), vehicle: saline) is 5 of 6 and 6 of 6. For `C=CC[n+]1cc2c3ccccc3c(N)cc2c2ccccc21`, the survivor count was 6 of 6 (T/C endpoint: mean survival time, dose: 12.5 mg/kg/injection, schedule: Q04DX003 (ip), vehicle: water) and 0 of 6 (T/C endpoint: mean survival time, dose: 25.0 mg/kg/injection, schedule: Q04DX003 (ip), vehicle: water). Take `c1ccc([P+](c2ccccc2)(c2ccccc2)C2OCCO2)cc1`: the survivor count (T/C endpoint: mean survival time, dose: 200.0 mg/kg/injection, schedule: Q01DX001 (ip), vehicle: saline with Tween-80) was 0 of 6 and the survivor count (T/C endpoint: mean survival time, dose: 400.0 mg/kg/injection, schedule: Q01DX001 (ip), vehicle: saline with Tween-80) is on record as 0 of 6. `NC(=O)c1nn(C2OC(CO)C(O)C2O)c2ncnc(N)c12` (configuration not stated): the survivor count is listed as 3 of 6 (T/C endpoint: mean survival time, dose: 100.0 mg/kg/injection, schedule: Q01DX009 (ip), vehicle: Klucel (hydroxypropylcellulose) (HPC)) and 0 of 6 (T/C endpoint: mean survival time, dose: 200.0 mg/kg/injection, schedule: Q01DX009 (ip), vehicle: Klucel (hydroxypropylcellulose) (HPC)). In the case of `c1ccc(CSc2ncnc3nc[nH]c23)nc1`, where the note is “T/C endpoint: mean survival time, dose: 200.0 mg/kg/injection, schedule: Q04DX003 (ip), vehicle: saline with Tween-80”, the T/C is 136 % of control. `COc1ccc2c(c1O)-c1cc(O)cc3c1C(C2)N(CCCl)CC3` (configuration not stated): the survivor count is, setting by setting: (T/C endpoint: mean survival time, dose: 50.0 mg/kg/injection, schedule: Q04DX003 (ip), vehicle: DMSO) 5 of 6; (T/C endpoint: mean survival time, dose: 100.0 mg/kg/injection, schedule: Q04DX003 (ip), vehicle: DMSO) 4 of 6; under setting [4], 0 of 6; under setting [5], 0 of 6.

`Cc1ccc([N+](=O)[O-])cc1NC(=O)Oc1ccc(Cl)cc1Cl`: the survivor count under setting [1] is listed as 0 of 6.

As for `C=COC(=O)NC(CC(C)C)C(=O)O` (configuration not stated), under setting [6], the survivor count is reported as 0 of 6.

Regarding `CC(=O)Nc1ccc(N=NNc2ccccc2)cc1`, the survivor count is recorded as 0 of 3 (T/C endpoint: mean survival time, dose: 50.0 mg/kg/injection, schedule: Q01DX001 (ip), vehicle: Klucel (hydroxypropylcellulose) (HPC)); 0 of 3 (T/C endpoint: mean survival time, dose: 100.0 mg/kg/injection, schedule: Q01DX001 (ip), vehicle: Klucel (hydroxypropylcellulose) (HPC)); 0 of 3 (T/C endpoint: mean survival time, dose: 200.0 mg/kg/injection, schedule: Q01DX001 (ip), vehicle: Klucel (hydroxypropylcellulose) (HPC)). `O=S(=O)(F)c1cc(Cl)ccc1C[P+](c1ccccc1)(c1ccccc1)c1ccccc1`: the survivor count runs as follows: (T/C endpoint: mean survival time, dose: 75.0 mg/kg/injection, schedule: Q01DX001 (ip), vehicle: saline) 0 of 6; (T/C endpoint: mean survival time, dose: 150.0 mg/kg/injection, schedule: Q01DX001 (ip), vehicle: saline) 1 of 6; under setting [6], 1 of 6. In the case of `Cc1ccc(S(=O)(=O)Cl)cc1`, the survivor count under setting [7] is on record as 3 of 3.

With `O=c1oc(-c2ccccc2Cl)nc2cc(Cl)ccc12`, the survivor count under setting [3] is listed as 0 of 6. With `S=c1n(Cc2ccccc2)cnc2ncnn12`, the survivor count (T/C endpoint: mean survival time, dose: 400.0 mg/kg/injection, schedule: Q04DX003 (ip), vehicle: Klucel (hydroxypropylcellulose) (HPC)) is 1 of 6.

As to `Cc1cc(=O)[nH]c(=S)[nH]1`, the survivor count under setting [2] is recorded as 0 of 3. Take `CC[N+](C)(CC)CCOC(=O)c1ccc(N=C=S)cc1`: the survivor count is 1 of 3 (T/C endpoint: mean survival time, dose: 100.0 mg/kg/injection, schedule: Q04DX002 (ip), vehicle: saline); 1 of 3 (T/C endpoint: mean survival time, dose: 200.0 mg/kg/injection, schedule: Q04DX002 (ip), vehicle: saline); 0 of 3 under setting [7]. With `CCCCOC(=O)CCC(NC(=O)c1ccc(N(C)Cc2cnc3nc(N)nc(N)c3n2)cc1)C(=O)O` (configuration not stated), the T/C (T/C endpoint: mean survival time, dose: 0.75 mg/kg/injection, schedule: Q01DX009 (ip), vehicle: water) was 141 % of control. For the setting “T/C endpoint: mean survival time, dose: 12.0 mg/kg/injection, schedule: Q01DX009 (ip), vehicle: water”, the survivor count was 5 of 6.
